According to US9453062B2, “Glucose dependent insulinotropic polypeptide analogs, pharmaceutical compositions and use thereof” (Beijing Hanmi Pharmaceutical Co., Ltd., priority 2011, dated 2016):
For at least one compound, name, drawing or mass did not settle the structure.

How the values were obtained:
hGIPR = biological target: T1, hGIPR (Homo sapiens, UniProt P48546); test: hGIPR-mediated cAMP induction assay in CHO cell line; type: cell-based; settings: liraglutide up to 1 μM
T1 construct: expressed in transfected cells; host or cells: CHO
T1 sequence (P48546 22-466): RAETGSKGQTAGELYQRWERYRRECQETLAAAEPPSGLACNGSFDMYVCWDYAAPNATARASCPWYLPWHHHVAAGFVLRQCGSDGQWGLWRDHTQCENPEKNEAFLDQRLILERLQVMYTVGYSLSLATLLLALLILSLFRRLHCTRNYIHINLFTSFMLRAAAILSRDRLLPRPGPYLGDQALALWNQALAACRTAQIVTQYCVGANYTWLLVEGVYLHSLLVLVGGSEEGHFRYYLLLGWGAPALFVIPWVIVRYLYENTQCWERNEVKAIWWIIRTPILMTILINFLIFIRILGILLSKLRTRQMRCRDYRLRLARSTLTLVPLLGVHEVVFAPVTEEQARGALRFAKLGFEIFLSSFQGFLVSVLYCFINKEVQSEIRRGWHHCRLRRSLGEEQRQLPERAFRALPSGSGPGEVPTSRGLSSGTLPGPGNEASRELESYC

db/db mice [1] = test: non-fasting blood glucose and HbA1C in db/db mice; type: in vivo; settings: sc once daily; up to 24 hours after the first injection
db/db mice [2] = test: blood lipid profile test in db/db mice; type: in vivo; settings: day 21, compared to the control group

## CCCCCCCCCCCCCCCC(=O)N[C@@H](CCC(=O)NCCCC[C@H](NC(=O)[C@H](C)NC(=O)[C@H](C)NC(=O)[C@H](CCC(N)=O)NC(=O)CNC(=O)[C@H](CCC(=O)O)NC(=O)[C@H](CC(C)C)NC(=O)[C@H](Cc1ccc(O)cc1)NC(=O)[C@H](CO)NC(=O)[C@H](CO)NC(=O)[C@@H](NC(=O)[C@H](CC(=O)O)NC(=O)[C@H](CO)NC(=O)[C@@H](NC(=O)[C@H](Cc1ccccc1)NC(=O)[C@@H](NC(=O)CNC(=O)[C@H](CCC(=O)O)NC(=O)[C@H](C)NC(=O)[C@@H](N)Cc1cnc[nH]1)[C@@H](C)O)[C@@H](C)O)C(C)C)C(=O)N[C@@H](CCC(=O)O)C(=O)N[C@@H](Cc1ccccc1)C(=O)N[C@H](C(=O)N[C@@H](C)C(=O)N[C@@H](Cc1c[nH]c2ccccc12)C(=O)N[C@@H](CC(C)C)C(=O)N[C@H](C(=O)N[C@@H](CCCNC(=N)N)C(=O)NCC(=O)N[C@@H](CCCNC(=N)N)C(=O)NCC(=O)O)C(C)C)[C@@H](C)CC)C(=O)O [liraglutide]
hGIPR
  GIPR activation in vitro, in words: did not stimulate GIPR at all
db/db mice [1]
  non-fasting glucose level on day 0: reduced blood glucose levels
db/db mice [2]
  HDL cholesterol level: Neither the analog 068 nor liraglutide modified HDL cholesterol level
